From the supplement of paper PMC10849652
The list shows a part of the results.

Chains of the proteins cited; added tags and fusions are not shown. Lines headed by an entry give the natural chain unless they say otherwise; changes in a name come on top.
UniProt H0YH80: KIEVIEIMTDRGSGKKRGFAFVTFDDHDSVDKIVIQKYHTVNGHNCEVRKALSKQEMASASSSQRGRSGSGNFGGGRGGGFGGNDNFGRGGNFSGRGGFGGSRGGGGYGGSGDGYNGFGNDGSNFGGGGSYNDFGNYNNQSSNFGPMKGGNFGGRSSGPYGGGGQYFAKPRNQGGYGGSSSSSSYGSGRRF
UniProt Q9NWT6: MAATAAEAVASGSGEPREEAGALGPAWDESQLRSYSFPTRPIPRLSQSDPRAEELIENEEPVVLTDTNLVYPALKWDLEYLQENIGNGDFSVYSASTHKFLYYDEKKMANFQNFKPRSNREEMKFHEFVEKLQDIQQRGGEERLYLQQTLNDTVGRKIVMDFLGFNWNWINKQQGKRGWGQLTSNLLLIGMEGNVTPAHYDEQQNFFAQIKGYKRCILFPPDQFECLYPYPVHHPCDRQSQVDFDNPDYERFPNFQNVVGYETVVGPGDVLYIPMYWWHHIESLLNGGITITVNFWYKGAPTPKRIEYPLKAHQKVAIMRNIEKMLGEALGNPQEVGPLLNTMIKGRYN
UniProt Q659A1: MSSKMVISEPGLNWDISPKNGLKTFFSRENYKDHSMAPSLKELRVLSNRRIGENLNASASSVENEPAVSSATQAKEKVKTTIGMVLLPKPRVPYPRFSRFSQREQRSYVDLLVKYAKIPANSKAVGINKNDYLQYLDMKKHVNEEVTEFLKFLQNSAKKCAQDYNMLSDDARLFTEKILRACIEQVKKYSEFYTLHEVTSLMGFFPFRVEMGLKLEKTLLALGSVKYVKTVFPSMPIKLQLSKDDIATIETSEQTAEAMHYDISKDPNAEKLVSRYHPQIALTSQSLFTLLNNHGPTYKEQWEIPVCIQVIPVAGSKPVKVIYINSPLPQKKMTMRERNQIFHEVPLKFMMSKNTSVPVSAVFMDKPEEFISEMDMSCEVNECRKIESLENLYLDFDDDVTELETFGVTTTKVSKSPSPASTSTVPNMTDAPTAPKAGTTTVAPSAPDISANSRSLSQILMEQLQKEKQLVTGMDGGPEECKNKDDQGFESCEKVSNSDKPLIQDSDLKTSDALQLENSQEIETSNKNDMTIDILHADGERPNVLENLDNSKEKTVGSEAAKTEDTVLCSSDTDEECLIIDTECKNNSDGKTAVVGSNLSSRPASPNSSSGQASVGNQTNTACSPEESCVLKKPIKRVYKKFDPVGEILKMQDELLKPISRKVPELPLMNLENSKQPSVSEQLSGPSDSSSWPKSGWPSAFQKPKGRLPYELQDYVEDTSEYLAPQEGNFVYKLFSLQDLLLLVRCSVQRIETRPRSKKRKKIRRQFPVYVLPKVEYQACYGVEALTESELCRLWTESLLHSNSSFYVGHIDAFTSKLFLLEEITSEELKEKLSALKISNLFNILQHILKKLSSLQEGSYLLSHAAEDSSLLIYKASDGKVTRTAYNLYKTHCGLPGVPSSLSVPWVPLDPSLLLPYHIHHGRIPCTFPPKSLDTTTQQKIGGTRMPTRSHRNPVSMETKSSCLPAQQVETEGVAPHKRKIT
UniProt Q9NSB8: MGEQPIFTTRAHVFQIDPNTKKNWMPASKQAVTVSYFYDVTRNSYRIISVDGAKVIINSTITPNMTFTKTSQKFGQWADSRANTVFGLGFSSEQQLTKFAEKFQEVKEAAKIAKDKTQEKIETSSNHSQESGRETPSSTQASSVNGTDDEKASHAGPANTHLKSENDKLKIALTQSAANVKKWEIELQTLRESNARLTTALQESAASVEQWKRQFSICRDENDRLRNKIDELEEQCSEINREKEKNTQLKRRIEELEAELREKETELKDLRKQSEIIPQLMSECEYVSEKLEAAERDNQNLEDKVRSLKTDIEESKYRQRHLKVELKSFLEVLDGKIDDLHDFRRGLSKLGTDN
UniProt Q92902: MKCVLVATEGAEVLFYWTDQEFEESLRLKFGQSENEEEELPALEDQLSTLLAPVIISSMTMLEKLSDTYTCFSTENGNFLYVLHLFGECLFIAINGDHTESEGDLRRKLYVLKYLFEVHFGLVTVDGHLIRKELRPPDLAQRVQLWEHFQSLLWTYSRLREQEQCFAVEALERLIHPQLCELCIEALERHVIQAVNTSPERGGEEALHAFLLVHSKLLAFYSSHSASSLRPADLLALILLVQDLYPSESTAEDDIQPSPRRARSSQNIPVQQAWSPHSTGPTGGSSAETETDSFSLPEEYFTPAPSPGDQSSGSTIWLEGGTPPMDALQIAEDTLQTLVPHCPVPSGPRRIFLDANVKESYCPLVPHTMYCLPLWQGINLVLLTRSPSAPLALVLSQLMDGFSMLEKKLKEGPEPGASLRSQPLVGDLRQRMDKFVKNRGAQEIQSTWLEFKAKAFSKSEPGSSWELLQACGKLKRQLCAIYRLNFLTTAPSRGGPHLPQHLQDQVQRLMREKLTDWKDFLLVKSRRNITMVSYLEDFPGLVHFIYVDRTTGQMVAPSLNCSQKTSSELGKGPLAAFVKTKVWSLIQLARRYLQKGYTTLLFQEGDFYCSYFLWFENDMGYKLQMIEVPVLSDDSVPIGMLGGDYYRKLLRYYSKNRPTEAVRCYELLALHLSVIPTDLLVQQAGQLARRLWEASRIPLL
UniProt Q8TCT9: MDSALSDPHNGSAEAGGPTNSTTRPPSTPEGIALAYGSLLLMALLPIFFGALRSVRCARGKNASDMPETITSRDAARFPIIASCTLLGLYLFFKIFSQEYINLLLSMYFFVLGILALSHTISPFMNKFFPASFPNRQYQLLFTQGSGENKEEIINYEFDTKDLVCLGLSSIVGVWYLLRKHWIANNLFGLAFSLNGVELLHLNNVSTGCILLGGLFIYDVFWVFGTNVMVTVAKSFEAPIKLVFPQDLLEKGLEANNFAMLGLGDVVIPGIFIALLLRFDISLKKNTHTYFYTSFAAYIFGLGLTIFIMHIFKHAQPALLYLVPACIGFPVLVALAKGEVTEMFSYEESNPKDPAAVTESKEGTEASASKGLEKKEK
UniProt Q9UJC3, whole entry, looked up: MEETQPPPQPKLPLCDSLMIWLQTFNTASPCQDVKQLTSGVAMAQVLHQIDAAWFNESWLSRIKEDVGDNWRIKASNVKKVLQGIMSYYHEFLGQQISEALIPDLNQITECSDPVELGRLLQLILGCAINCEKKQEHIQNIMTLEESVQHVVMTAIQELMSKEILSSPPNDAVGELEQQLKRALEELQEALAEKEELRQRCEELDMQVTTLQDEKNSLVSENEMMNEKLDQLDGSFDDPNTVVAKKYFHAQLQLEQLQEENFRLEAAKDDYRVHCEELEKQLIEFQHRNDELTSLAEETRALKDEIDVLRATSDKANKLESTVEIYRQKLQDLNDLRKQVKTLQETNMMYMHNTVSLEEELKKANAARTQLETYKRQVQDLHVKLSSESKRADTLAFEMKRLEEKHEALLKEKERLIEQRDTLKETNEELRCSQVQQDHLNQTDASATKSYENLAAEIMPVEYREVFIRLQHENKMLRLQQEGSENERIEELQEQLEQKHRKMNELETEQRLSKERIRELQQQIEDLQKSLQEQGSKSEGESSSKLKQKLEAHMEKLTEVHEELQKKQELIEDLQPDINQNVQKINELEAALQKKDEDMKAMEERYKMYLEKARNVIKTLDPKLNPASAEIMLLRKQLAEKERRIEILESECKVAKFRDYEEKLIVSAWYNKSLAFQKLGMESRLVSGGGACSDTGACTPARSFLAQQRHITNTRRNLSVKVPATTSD
UniProt Q96EW2: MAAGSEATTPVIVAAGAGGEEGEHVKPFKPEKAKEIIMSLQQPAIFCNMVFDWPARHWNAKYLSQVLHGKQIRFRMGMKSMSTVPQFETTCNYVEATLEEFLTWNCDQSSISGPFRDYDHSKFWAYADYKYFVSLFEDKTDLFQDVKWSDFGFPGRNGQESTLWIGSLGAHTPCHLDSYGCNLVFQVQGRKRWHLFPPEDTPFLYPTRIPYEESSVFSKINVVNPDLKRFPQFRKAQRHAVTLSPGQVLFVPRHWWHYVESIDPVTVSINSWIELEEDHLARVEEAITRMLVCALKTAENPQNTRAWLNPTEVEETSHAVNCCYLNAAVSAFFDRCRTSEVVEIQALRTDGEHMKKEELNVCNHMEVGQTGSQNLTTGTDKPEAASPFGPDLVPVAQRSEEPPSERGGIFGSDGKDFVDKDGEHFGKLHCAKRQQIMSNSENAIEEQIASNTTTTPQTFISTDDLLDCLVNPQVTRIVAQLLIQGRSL

These targets were tested with COC(=O)[C@H](CCSC)NC(=O)C1=C(C=C(C=C1)NC[C@H](CS)N)C2=CC=CC=C2 (assay: log2 fold change, soluble protein after heating vs DMSO (PISA); higher = thermal stabilisation; K562 cells, 10 uM, 30 min; active = over 0.2 and 3.5 SD of the protein, either way, in both replicates (recomputed)).
Procedure, shortened: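 Aliquots of K562 cells (2×10^6 cells/mL) treated with 10 μM compound for 30 min were heated for 3 min over 48°C-58°C. After pooling and extraction in PBS with 0.5% NP-40 at 4°C, soluble protein from a 21,000xg, 90 min spin was quantified by TMTpro 16plex LC-MS/MS with channel sums equalised. Thermal stability is expressed against control samples, from duplicates, as a log2 fold change.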

log2 fold change, inactive:
HNRNPA1 (UniProt H0YH80) 0.036
HSPA8 (UniProt E9PN89) -0.036
HIF1AN (UniProt Q9NWT6) 0.05
ICE2 (UniProt Q659A1) -0.145
HOMER2 (UniProt Q9NSB8) 0.117
HPS1 (UniProt Q92902) 0.062
HM13 (UniProt Q8TCT9) 0.009
HOOK1 (UniProt Q9UJC3) 0.045
HSPBAP1 (UniProt Q96EW2) -0.078
ICOSLG isoform 2 (UniProt O75144) -0.317
HMBS (UniProt F5H226) -0.224
HTD2 (UniProt P86397) 0.001
